Measurements as given in article PMC4528719, “Functional role of dimerization and CP190 interacting domains of CTCF protein in Drosophila melanogaster” (BMC Biology, 2015).
No constants are given. Whether binding was seen depends on the method and setting. A result given as binding can be weak or reduced; the word gives no strength. For some of these results: Where a sequence is shown, tags or fusion partners need not be part of it. Each block holds one molecule with its values, some of them ahead of it.

Experiments:
[1] = target: T1, full-length CP190 (yeast two-hybrid) (Drosophila) (UniProt Q24478); test: two-hybrid; yeast; dCTCF or its parts fused to GAL4 AD, CP190 or its sub-fragments fused to GAL4 DNA BD (Fig. 3b)
T1 sequence: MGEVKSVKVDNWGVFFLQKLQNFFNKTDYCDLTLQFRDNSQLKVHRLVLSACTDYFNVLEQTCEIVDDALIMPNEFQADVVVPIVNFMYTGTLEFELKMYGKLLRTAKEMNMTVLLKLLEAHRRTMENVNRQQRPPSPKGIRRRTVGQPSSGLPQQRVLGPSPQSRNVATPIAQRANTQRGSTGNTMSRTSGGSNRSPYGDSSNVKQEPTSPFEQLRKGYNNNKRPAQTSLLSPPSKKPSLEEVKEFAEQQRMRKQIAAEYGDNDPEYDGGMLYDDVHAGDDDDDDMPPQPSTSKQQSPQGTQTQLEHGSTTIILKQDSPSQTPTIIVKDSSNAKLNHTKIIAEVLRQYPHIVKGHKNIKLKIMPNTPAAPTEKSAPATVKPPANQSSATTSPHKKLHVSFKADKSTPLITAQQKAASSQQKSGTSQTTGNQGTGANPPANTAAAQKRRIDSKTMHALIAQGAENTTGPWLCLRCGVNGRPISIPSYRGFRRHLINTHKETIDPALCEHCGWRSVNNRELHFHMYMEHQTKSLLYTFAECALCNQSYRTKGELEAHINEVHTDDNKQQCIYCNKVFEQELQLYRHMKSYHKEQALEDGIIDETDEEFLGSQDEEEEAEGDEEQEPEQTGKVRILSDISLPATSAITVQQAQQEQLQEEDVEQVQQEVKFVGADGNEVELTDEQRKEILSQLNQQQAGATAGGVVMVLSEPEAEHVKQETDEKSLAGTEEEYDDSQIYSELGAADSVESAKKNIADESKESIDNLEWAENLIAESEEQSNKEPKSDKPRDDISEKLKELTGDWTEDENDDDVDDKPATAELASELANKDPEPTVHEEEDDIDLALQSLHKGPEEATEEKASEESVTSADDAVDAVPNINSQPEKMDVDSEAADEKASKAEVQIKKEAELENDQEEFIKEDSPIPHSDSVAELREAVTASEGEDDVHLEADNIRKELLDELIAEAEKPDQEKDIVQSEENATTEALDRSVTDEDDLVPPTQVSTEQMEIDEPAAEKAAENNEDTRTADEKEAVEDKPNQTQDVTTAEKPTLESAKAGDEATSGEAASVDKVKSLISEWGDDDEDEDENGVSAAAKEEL

[2] = target: CP190 BTB domain fused to the GAL4 DNA BD (Drosophila) (UniProt Q24478); test: as above

- binding [1]: binds
Molecule: dCTCF zinc fingers plus the CTD fused to the GAL4 activation domain (Drosophila melanogaster) (domain or fragment)

- binding [1]: no binding
Molecule: dCTCF NTD fused to the GAL4 activation domain (Drosophila melanogaster) (domain or fragment)

- binding [1]: binds
Molecule: dCTCF CTD alone fused to the GAL4 activation domain (Drosophila melanogaster) (domain or fragment)

- binding [2]: binds
B1: full-length dCTCF fused to the GAL4 activation domain (protein, UniProt Q9VS55 1-818)
chain: MPRRTKKDEDPEDLQTFLNNFHKEIEGNSDEKVVNTILEAISAEAIDLDENGAEAGGSKPMEEAEADLDHAEEAEEEEEDDEDKYFIDDEGNCYIKTTPKKQKELQKKLKQAAAKPGKATRSVVSTATNKSINLRPAKSTPKATTSKPPPEPKAISVRPARAAAAKAKQSAMPPPPALVVKVPAPRGRPRKNPVIPKPEPMDLERELEELVDEPDISSMVTELSDYTVDEAAVEAATATLTPNEAEVYEFEDNATTEDENADKKDVDFVLSNKEVKLKTASSTSQNSNASGHKYSCPHCPYTASKKFLITRHSRSHDVEPSFKCSICERSFRSNVGLQNHINTHMGNKPHKCKLCESAFTTSGELVRHTRYKHTKEKPHKCTECTYASVELTKLRRHMTCHTGERPYQCPHCTYASQDMFKLKRHMVIHTGEKKYQCDICKSRFTQSNSLKAHKLIHSVVDKPVFQCNYCPTTCGRKADLRVHIKHMHTSDVPMTCRRCGQQLPDRYQYKLHVKSHEGEKCYSCKLCSYASVTQRHLASHMLIHLDEKPFHCDQCPQAFRQRQLLRRHMNLVHNEEYQPPEPREKLHKCPSCPREFTHKGNLMRHMETHDDSANAREKRRRLKLGRNVRLQKDGTVITLIKDQYVDMDRDQEENEEDDNPESYDLAEIEPENSEAEDADDDVETIVSDPIRQRIKPAPIIINKQARLAASEKQPMIINQRLRSQRGTKTFHIKEEPDNSDFTVEWQGDDGEVMVVELVNGDEEVLVKHEPSANSKISAKNCFGFEDDDDYEEYGDGENEVDGASQEFLQLMDMIEQDS
